According to PubChem BioAssay AID1259354 (Paczesny and Yang Labs, IUPUI and University of Michigan, 2018):
Several values for one entry are separate records, joined by “and”; a condition that tells them apart may be missing. Equal entries are not always repeated. Out of some 78,000 compounds screened, about 1,800 (2.3%) were called active. Inconclusive results, whose numbers are uncertain, are shown with a selection of clear calls. Rule as the data show it: active = inhibition above about 30%; inconclusive = mostly about 10% to 28%; inactive = weaker than that.

The chains behind the UniProt entries cited, without tags or fusion partners. Where a name states a change or a piece, a line headed by the entry shows the natural chain unless it says otherwise.
UniProt Q01638: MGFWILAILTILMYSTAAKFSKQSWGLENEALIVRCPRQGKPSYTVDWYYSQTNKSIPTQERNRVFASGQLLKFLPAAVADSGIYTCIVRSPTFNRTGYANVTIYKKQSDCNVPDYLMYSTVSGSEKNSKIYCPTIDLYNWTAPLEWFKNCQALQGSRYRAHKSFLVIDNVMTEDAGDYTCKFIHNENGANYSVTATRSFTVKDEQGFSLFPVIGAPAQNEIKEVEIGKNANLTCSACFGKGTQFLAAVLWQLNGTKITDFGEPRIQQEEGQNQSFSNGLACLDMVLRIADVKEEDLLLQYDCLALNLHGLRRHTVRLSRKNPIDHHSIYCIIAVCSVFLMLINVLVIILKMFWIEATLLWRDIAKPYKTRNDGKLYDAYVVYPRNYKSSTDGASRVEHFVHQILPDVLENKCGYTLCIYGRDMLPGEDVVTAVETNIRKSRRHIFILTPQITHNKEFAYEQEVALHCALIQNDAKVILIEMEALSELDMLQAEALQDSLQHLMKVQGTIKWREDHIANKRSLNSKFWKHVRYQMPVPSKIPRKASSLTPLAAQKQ

Molecular target: Interleukin-1 receptor-like 1 (Homo sapiens) (UniProt Q01638)
Experiment: blocks human ST2 binding to IL-33, primary screen, biochemical, AlphaLISA (AID 1259354)
Settings: AlphaLISA ST2-Fc/biotin-IL-33 interaction, 1 h; at 17 µM, stronger effect = higher value

| Compound | inhibition |
| --- | --- |
| CCOC(=O)C1=C(C)NC2=C(C(=O)CCC2)C1c1cc(Br)c(O)c(OCC)c1 (stereo not given) | inactive |
| CN(Cc1ncc[nH]1)C(=O)c1nc2ccccc2s1 | inconclusive: 15% |
| N#CC1=C2SCN(c3ccc(F)cc3)CN2C(=O)CC1c1ccccc1Cl (stereo not given) | inconclusive: 13% |
| O=C1NCCc2c1[nH]c1ccc([N+](=O)[O-])cc21 | active: 30% |
| CCC1(C)CC(CCNCc2ccccc2O)(c2ccccc2OC)CCO1 (stereo not given) | inconclusive: 19% |
| COc1cccc(CC(C2CCN(C(=O)Cc3ccccc3C)CC2)N(C)C(=O)c2cccnc2)c1 (stereo not given) | inconclusive: 10% |
| Cc1ccc(NC(=O)c2cc(C(=O)Nc3ccc(C)c(C)c3)n(C)n2)cc1C | inconclusive: 16% |
| CN(C)CCN1C(=O)C(O)=C(C(=O)c2ccco2)C1c1ccccc1F (stereo not given) | inconclusive: 20% |
| O=C(Cc1ccccc1)N1CCN=C1SCc1ccc(Br)cc1 | inactive |
| Cc1cc2c(cc1Cl)N(C(=O)Nc1ccc(Oc3cccnc3C)nc1)CC2 | inconclusive: 14% |
| Cc1ccc(-c2noc(CCC(=O)NCc3cccnc3)n2)cc1 | inconclusive: 18% and inconclusive: 16% |
| O=C1CCC(C(=O)N2CCCCCCC2)CN1CCc1ccccc1 (stereo not given) | inactive |
| COCCN(Cc1nc2ccccc2n1C)CC1CCCN(C2Cc3ccccc3C2)C1 (stereo not given) | inconclusive: 15% |
| CC(C)Cn1c(CN2CCN(c3ncccn3)CC2)cnc1S(=O)(=O)CC1CCCO1 (stereo not given) | inconclusive: 14% |
| Cc1cccc(C(NC(=O)CCN2CCCCO2)c2cccs2)c1 (stereo not given) | inconclusive: 20% |
| O=C(NCCc1ccc(F)cc1)C1CCCN(C2CCN(C(=O)C3CC3)CC2)C1 (stereo not given) | inactive |
| O=C(NC1CCCCCC1)c1coc(=O)c2ccccc12 | inactive |
| CCCCN(CCCC)S(=O)(=O)c1cccc2nonc12 | active: 31% |
| COc1ccc(-c2coc3cc(OC4OC(CO)C(O)C(O)C4O[C@H]4OC[C@](O)(CO)[C@H]4O)ccc3c2=O)cc1 (stereo not given in full) | inconclusive: 13% |
| COc1ccc2nc(SCc3ccc(C)cc3)[nH]c2c1 | inactive |

| Compound | inhibition |
| --- | --- |
| CSc1oc(-c2ccco2)nc1S(=O)(=O)c1ccc(Cl)cc1 | inconclusive: 12% |
| Cc1cc([N+](=O)[O-])nn1CCCC(=O)Nc1sc2c(c1C(=O)OC(C)C)CCCC2 | inactive |
| O=C(c1ccccc1Oc1ccccc1)N1CCOC2(CNCCOC2)C1 (stereo not given) | inactive |
| Cc1ccc2cc(CN3CCN(CCn4cncn4)CC3)c(=O)[nH]c2c1 | inactive |
| O=C(O)c1ccccc1N1C(=O)C2C3CC(C(Br)C3Br)C2C1=O (stereo not given) | inactive |
| COc1cccc(-c2cn3nc4c(nc3n2)CCCC4)c1 | inconclusive: 29% |
| Cc1scc2c1N(C(=O)CN1CCN(C)CC1)c1ccccc1NC2=O | inconclusive: 14% |
| CC1=C(C(=O)Nc2ccc(F)cc2F)C(c2ccc(N(C)C)cc2)C2=C(CC(C)(C)CC2=O)N1 (stereo not given) | inconclusive: 24% |
| CN(C)CCNC(=O)c1cc2c(=O)n3ccccc3nc2n1C | inactive |
| COc1cccc(N2CCN(c3ncnc4c3cnn4-c3ccc(C)cc3C)CC2)c1 | inconclusive: 20% |
| Cc1[nH]c2c(CNC(=O)Cc3ccccc3)cc(F)cc2c1C | inactive |
| CCOC(=O)Cn1c(=O)n(-c2ccc(C)c(C)c2)c2nc(-c3ccccc3Cl)nc(C(N)=O)c21 | inconclusive: 10% |
| O=[N+]([O-])c1ccc(-c2cn3ccccc3n2)cc1 | inconclusive: 15% |
| O=C(Nc1ncc([N+](=O)[O-])s1)c1cccc(Br)c1 | inconclusive: 14% |
| O=c1[nH]c2ccccc2c(-c2ccccc2)c1Sc1ncn[nH]1 | inactive |
| Cc1cc(N(C)C)nc(Nc2ccc(NC(=O)c3cccc(Cl)c3)cc2)n1 | inconclusive: 21% |
| O=C(CCCn1cnc([N+](=O)[O-])n1)Nc1ccccc1C(F)(F)F | inconclusive: 20% |
| CNc1ccc(Cl)cc1C(=O)N1CCN2CCNC(=O)C2C1 (stereo not given) | inconclusive: 15% |
| Cc1cc(NC(=O)c2ccccc2[N+](=O)[O-])nc2c1c(=O)oc1ccccc12 | inconclusive: 16% |
| O=C(O)c1cccc(NC(=O)c2cccc(S(=O)(=O)Nc3ccc(Cl)cc3)c2)c1 | inactive |

Part of the list above, set out differently.
Compound	inhibition
O=[N+]([O-])c1ccc(-c2cn3ccccc3n2)cc1	inconclusive: 15%
O=C(Nc1ncc([N+](=O)[O-])s1)c1cccc(Br)c1	inconclusive: 14%
O=c1[nH]c2ccccc2c(-c2ccccc2)c1Sc1ncn[nH]1	inactive

(list continues)

| Compound | inhibition |
| --- | --- |
| CC(=O)NCCCC(=O)N1CCC(=O)N(CC2CC2)C(C(C)C)C1 (stereo not given) | inactive |
| O=C(N[C@@H](Cc1ccccc1)C(=O)CCl)OCc1ccccc1 | inconclusive: 11% |
| Cc1ccc(C2(CC(=O)N(C)CCC#N)CCOC(C)(C)C2)cc1 (stereo not given) | inactive |
| Cc1cccc(N2CCN(Cc3ccoc3)CC2)c1C | inconclusive: 11% |
| Cc1cc(C)c(S(=O)(=O)NCc2cccnc2)c(C)c1 | inconclusive: 10% |
| CCn1ncc(Cl)c1C(=O)N1CCN(C)C2(CCN(C)CC2)C1 | inactive |
| CN1CCN(c2nc3ccccc3nc2NS(=O)(=O)c2ccc(Br)cc2)CC1 | inconclusive: 17% |
| COc1cccc(CN2CCN(Cc3cc(OC)c(OC)c(OC)c3)CC2)c1OC | inconclusive: 14% |
| CCN(CC)CCN1C(=O)c2ccccc2NC1c1ccc(Br)cc1 (stereo not given) | inconclusive: 11% |
| COCCCNC(=O)c1cc(-c2ccncc2)nc2ccccc12 | inconclusive: 11% |
| O=C(CN1CCN(Cc2ccccc2)C1=O)NCCN1CCOCC1 | inconclusive: 16% |
| CC(C)c1ccc(N(C)C(=O)Cc2c(C(=O)O)[nH]c3ccccc23)cc1 | inactive |
| COc1ccc(C(=O)Nc2ccc(N3CCCC3)cc2)cc1OC | active: 35% |
| O=C(COc1ccc(Cl)cc1Cl)Nc1cccc(NC(=O)c2ccccc2Cl)c1 | inactive |
| FCCn1cnc(-c2ccccc2)c1-c1ncc[nH]1 | inconclusive: 11% |
| O=[N+]([O-])c1cccc2c1NC(c1ccc(Br)cc1)C1CC=CC21 (stereo not given) | inconclusive: 29% |
| O=C(OC[C@H]1OC[C@H](OC(=O)c2cc(O)c(O)c(O)c2)[C@@H](O)[C@@H]1O)c1cc(O)c(O)c(O)c1 | inconclusive: 22% |
| O=C(O)CSc1nnc(Cc2cccnc2)n1-c1cccc(Cl)c1 | inactive |
| CN1CC[C@H](c2nc3ccccc3[nH]2)C1 | inconclusive: 15% |
| CN(Cc1ccccc1)C(=O)c1cc2n(n1)C(C(F)(F)F)CC(c1ccc(Cl)cc1)N2 (stereo not given) | inactive |
